Results are given in words; binding and its absence hold for the method and conditions named. Binding seen in cells or lysates may run through a third protein. Some results given as binding are weak or reduced against the parent protein; the word gives no strength.

By UniProt entry, the sequences of proteins in these tests, tags left out. Where a name states a change or a piece, a line headed by the entry shows the natural chain unless it says otherwise. Residues count along the entry.
UniProt O95863: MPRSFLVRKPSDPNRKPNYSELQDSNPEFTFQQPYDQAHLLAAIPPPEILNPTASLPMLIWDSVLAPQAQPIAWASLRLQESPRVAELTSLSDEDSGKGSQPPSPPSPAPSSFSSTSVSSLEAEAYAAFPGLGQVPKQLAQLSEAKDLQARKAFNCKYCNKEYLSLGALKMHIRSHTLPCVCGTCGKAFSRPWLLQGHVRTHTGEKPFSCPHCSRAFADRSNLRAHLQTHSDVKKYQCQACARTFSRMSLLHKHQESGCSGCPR
UniProt P63165, residues 1-97: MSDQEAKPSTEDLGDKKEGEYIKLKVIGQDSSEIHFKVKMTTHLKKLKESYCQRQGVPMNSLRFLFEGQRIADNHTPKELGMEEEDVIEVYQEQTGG
UniProt P05412: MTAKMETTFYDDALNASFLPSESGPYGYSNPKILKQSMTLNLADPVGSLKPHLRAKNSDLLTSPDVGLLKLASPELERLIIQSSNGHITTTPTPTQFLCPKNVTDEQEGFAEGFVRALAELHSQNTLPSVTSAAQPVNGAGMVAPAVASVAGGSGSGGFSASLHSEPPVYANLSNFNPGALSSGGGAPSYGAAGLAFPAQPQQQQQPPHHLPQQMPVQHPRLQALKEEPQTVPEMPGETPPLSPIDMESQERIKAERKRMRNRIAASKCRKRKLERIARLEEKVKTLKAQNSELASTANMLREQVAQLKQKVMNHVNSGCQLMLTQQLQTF

Assay [1] deals with Snail1 (endogenous) (human (endogenous in PC-3U, MDA-MB-231, A549)) (UniProt O95863). Kind of assay: proximity ligation; endogenous proteins in fixed, permeabilised PC-3U cells, untreated or treated with TGFβ; primary antibodies from different species, PLA probes; signals counted with Blob finder.
The target of the next assay is K234R mutant HA-Snail1 (UniProt O95863). Kind of assay: proximity ligation; PC-3U cells transiently transfected with HA-WT-Snail1 or Mutant-HA-Snail1, treated with TGFβ; anti-rabbit Sumo1 and anti-mouse HA antibodies, PLA probes.
For a further assay, the target named is HA-Snail1 (wild type) (UniProt O95863). Described as above.
Assay [2] concerns the target Snail1 (endogenous) (human (endogenous in PC-3U, MDA-MB-231, A549)) (UniProt O95863). Kind of assay: proximity ligation; endogenous proteins in MDA-MB-231 cells, untreated or treated with TGFβ (supplementary figures).
The target is the same in assay [3]. Kind of assay: proximity ligation; endogenous proteins in A549 cells, untreated or treated with TGFβ (supplementary figure).
The target is the same in assay [4]. Kind of assay: co-IP; endogenous proteins; PC-3U cells treated with TGFβ (10 ng/ml) for the indicated times, lysed in RIPA buffer; primary antibody overnight, Protein G Sepharose at 4°C, three washes with RIPA; immunoblot.
Assay [5] shares this target. Kind of assay: proximity ligation; endogenous proteins in MDA-MB-231 cells, untreated or treated with TGFβ (supplementary figures). The source holds these as a separate data set.
Assay [6] has the same target. Kind of assay: proximity ligation; endogenous proteins in fixed, permeabilised PC-3U cells, untreated or treated with TGFβ; primary antibodies from different species, PLA probes; signals counted with Blob finder. This is another data set of the same source.
Assay [7] has the same target. Kind of assay: co-IP; endogenous proteins; PC-3U cells treated with TGFβ (10 ng/ml) for the indicated times, lysed in RIPA buffer; primary antibody overnight, Protein G Sepharose at 4°C, three washes with RIPA; immunoblot. The source holds these as a separate data set.
Assay [8] has as its target T1, TGFβ receptor I (TβRI), endogenous (human (endogenous in PC-3U, MDA-MB-231)) (UniProt P36897).
T1 sequence: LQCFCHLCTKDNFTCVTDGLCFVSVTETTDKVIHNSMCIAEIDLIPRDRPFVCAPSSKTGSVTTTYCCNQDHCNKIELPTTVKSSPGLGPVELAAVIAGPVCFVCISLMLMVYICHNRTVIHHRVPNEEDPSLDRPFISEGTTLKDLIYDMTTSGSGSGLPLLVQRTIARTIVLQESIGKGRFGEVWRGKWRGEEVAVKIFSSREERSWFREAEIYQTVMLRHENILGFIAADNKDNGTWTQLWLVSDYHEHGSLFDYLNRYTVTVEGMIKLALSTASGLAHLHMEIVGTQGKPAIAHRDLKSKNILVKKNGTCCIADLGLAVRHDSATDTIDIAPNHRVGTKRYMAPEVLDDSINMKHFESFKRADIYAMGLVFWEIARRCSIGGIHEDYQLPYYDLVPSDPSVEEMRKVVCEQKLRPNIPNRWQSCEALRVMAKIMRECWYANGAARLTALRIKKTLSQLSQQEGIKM
The description is as above.

The target of assay [9] is T1, TGFβ receptor I (TβRI), endogenous (human (endogenous in PC-3U, MDA-MB-231)). Kind of assay: proximity ligation; endogenous proteins in fixed, permeabilised PC-3U cells, untreated or treated with TGFβ; primary antibodies from different species, PLA probes; signals counted with Blob finder.

Take “Sumo1 (endogenous) (from UniProt P63165 1-97)”: the binding result in assay [1] is “binds”; in the assay with K234R mutant HA-Snail1, “no binding”; in the assay with HA-Snail1 (wild type), “binds”; in assay [2], “binds”; in [3], “binds”.
For the molecule “c-Jun (endogenous) (from UniProt P05412 1-331)”, the binding result in assay [1] and in assay [4] was “binds” each time.

B1: TGFβ receptor I (TβRI), endogenous (receptor, UniProt P36897 34-503)
chain: LQCFCHLCTKDNFTCVTDGLCFVSVTETTDKVIHNSMCIAEIDLIPRDRPFVCAPSSKTGSVTTTYCCNQDHCNKIELPTTVKSSPGLGPVELAAVIAGPVCFVCISLMLMVYICHNRTVIHHRVPNEEDPSLDRPFISEGTTLKDLIYDMTTSGSGSGLPLLVQRTIARTIVLQESIGKGRFGEVWRGKWRGEEVAVKIFSSREERSWFREAEIYQTVMLRHENILGFIAADNKDNGTWTQLWLVSDYHEHGSLFDYLNRYTVTVEGMIKLALSTASGLAHLHMEIVGTQGKPAIAHRDLKSKNILVKKNGTCCIADLGLAVRHDSATDTIDIAPNHRVGTKRYMAPEVLDDSINMKHFESFKRADIYAMGLVFWEIARRCSIGGIHEDYQLPYYDLVPSDPSVEEMRKVVCEQKLRPNIPNRWQSCEALRVMAKIMRECWYANGAARLTALRIKKTLSQLSQQEGIKM
As for B1, the binding entry in assay [5] and in [6] was “binds” throughout.

B2: Hairy and enhancer of split-1 (Hes1), endogenous (protein, UniProt Q14469 1-280)
chain: MPADIMEKNSSSPVAATPASVNTTPDKPKTASEHRKSSKPIMEKRRRARINESLSQLKTLILDALKKDSSRHSKLEKADILEMTVKHLRNLQRAQMTAALSTDPSVLGKYRAGFSECMNEVTRFLSTCEGVNTEVRTRLLGHLANCMTQINAMTYPGQPHPALQAPPPPPPGPGGPQHAPFAPPPPLVPIPGGAAPPPGGAPCKLGSQAGEAAKVFGGFQVVPAPDGQFAFLIPNGAFAHSGPVIPVYTSNSGTSVGPNAVSPSSGPSLTADSMWRPWRN
With B2, the binding entry in [7], in assay [8], in assay [6] and in assay [9] was “binds” throughout.

Values taken from PMC5716685.
